According to the supplement of paper PMC10849652:
The other results are listed elsewhere or left out.

Protein sequences, listed by entry. Tags and fused reporters are not part of them. Lines headed by an entry give the natural chain unless they say otherwise; changes in a name come on top.
UniProt Q6AI08: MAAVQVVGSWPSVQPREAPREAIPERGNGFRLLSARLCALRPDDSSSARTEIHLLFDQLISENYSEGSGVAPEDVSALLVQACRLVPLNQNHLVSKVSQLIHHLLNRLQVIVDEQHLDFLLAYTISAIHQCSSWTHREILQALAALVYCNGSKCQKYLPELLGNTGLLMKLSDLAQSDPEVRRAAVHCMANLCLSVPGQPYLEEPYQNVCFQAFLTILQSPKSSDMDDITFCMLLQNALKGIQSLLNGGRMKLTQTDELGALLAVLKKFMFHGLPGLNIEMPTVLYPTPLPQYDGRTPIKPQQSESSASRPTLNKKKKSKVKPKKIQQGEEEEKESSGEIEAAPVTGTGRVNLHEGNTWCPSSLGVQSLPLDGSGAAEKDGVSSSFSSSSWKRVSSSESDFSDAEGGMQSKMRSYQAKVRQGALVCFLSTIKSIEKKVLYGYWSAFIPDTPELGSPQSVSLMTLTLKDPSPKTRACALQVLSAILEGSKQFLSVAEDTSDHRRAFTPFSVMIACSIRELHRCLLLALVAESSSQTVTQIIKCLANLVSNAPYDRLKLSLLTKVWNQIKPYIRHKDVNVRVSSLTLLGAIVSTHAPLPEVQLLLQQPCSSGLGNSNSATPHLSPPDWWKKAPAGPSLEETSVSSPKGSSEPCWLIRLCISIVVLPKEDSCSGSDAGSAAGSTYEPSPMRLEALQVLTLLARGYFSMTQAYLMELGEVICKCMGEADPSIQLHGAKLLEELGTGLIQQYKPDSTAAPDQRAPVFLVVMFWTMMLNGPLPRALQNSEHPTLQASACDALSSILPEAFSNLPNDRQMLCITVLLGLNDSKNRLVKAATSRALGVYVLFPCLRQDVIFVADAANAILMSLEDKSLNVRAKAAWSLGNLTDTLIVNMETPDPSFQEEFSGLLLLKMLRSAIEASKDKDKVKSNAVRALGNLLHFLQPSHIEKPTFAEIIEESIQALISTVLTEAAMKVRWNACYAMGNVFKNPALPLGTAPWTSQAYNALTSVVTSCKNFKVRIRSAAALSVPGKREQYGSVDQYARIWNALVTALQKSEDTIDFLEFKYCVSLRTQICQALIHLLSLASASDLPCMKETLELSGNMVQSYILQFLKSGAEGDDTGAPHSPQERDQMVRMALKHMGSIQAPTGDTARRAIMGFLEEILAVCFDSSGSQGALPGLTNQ
UniProt P07686: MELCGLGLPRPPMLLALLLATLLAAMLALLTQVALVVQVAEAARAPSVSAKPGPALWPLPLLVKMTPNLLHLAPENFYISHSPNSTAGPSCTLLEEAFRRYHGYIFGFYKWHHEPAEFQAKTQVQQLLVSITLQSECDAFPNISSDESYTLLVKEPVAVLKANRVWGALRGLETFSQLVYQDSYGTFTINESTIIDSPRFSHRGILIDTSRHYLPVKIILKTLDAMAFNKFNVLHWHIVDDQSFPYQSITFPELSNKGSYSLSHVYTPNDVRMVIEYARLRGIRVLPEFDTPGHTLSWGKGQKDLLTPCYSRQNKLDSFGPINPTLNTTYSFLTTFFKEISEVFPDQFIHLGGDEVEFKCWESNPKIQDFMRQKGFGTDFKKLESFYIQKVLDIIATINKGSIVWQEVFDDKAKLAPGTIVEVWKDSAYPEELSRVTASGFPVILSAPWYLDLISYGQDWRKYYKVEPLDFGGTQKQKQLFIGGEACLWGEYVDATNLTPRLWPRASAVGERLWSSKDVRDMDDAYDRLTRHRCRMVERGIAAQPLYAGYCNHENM
UniProt P07910: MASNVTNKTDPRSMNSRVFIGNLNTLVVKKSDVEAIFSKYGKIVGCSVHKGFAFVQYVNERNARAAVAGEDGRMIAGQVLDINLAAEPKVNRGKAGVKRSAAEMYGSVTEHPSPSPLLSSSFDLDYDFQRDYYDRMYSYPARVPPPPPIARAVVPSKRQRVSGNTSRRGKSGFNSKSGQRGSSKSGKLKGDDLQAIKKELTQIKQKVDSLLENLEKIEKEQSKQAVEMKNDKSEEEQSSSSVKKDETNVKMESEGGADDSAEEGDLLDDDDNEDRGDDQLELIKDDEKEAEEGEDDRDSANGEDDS
UniProt P52272: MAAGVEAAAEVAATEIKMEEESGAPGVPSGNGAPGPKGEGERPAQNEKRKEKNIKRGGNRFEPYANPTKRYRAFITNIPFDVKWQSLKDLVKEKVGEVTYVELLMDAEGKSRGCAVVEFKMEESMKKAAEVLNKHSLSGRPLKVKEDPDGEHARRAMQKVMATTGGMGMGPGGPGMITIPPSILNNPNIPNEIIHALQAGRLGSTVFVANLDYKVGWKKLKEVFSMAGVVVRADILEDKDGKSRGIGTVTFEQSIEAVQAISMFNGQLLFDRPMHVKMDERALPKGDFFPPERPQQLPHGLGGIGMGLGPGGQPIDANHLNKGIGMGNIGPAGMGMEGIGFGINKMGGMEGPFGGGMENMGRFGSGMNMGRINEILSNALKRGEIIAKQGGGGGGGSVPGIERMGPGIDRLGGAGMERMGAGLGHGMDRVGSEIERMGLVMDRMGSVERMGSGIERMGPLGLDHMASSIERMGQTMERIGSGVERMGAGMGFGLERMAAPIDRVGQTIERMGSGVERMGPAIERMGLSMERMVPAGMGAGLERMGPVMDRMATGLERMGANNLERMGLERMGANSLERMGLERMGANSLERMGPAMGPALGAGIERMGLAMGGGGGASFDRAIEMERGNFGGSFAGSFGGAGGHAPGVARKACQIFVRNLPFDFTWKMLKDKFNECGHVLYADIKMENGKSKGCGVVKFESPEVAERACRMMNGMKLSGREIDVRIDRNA
UniProt P26583: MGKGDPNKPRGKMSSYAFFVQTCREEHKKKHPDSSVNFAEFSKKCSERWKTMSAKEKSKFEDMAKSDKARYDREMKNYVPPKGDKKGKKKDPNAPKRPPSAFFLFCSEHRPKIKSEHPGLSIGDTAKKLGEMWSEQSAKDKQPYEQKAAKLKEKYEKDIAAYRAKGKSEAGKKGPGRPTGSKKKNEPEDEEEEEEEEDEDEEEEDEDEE
UniProt Q8NBQ5: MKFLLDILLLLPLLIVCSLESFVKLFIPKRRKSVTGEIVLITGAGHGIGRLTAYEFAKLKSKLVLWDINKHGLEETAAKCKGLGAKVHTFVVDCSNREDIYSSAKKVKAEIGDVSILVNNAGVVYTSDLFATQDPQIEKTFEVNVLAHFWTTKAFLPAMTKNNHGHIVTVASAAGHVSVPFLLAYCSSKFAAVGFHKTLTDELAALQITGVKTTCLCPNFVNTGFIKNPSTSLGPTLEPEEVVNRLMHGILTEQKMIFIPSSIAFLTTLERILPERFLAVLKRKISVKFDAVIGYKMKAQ
UniProt P34931, whole entry, looked up: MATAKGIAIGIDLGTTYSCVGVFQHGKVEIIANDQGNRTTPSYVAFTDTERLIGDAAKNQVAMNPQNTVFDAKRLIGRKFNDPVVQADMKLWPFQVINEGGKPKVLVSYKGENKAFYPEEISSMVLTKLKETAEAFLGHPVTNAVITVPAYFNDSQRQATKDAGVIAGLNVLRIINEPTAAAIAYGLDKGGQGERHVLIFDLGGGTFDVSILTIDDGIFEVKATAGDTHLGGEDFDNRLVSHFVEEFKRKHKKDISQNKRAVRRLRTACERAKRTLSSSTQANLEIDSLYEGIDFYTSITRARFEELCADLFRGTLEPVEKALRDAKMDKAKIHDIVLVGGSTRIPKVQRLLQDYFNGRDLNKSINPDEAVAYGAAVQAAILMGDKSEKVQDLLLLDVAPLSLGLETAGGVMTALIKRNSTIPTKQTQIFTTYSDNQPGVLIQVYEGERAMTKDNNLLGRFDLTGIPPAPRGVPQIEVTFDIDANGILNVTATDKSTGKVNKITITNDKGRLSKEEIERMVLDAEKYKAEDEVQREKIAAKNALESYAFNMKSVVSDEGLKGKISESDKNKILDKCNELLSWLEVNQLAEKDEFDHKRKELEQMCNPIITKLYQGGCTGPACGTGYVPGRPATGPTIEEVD
UniProt P50747: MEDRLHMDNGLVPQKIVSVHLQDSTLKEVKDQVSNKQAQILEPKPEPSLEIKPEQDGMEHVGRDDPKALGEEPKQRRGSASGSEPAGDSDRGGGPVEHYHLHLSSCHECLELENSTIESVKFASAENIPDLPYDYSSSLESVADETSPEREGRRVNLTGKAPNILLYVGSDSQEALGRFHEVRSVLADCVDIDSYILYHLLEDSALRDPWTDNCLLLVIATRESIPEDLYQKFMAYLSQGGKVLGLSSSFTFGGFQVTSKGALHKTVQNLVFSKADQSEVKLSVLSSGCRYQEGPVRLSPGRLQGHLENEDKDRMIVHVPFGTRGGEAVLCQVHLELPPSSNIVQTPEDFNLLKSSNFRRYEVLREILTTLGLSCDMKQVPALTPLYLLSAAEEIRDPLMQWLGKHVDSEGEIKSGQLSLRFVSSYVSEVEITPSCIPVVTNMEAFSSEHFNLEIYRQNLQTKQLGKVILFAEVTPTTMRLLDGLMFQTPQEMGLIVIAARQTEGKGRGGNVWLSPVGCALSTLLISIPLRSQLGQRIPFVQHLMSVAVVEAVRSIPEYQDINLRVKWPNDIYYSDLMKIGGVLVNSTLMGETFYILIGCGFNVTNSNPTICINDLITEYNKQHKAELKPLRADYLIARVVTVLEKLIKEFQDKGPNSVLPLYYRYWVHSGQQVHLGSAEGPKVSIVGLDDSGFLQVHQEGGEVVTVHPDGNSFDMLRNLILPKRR
UniProt P42694: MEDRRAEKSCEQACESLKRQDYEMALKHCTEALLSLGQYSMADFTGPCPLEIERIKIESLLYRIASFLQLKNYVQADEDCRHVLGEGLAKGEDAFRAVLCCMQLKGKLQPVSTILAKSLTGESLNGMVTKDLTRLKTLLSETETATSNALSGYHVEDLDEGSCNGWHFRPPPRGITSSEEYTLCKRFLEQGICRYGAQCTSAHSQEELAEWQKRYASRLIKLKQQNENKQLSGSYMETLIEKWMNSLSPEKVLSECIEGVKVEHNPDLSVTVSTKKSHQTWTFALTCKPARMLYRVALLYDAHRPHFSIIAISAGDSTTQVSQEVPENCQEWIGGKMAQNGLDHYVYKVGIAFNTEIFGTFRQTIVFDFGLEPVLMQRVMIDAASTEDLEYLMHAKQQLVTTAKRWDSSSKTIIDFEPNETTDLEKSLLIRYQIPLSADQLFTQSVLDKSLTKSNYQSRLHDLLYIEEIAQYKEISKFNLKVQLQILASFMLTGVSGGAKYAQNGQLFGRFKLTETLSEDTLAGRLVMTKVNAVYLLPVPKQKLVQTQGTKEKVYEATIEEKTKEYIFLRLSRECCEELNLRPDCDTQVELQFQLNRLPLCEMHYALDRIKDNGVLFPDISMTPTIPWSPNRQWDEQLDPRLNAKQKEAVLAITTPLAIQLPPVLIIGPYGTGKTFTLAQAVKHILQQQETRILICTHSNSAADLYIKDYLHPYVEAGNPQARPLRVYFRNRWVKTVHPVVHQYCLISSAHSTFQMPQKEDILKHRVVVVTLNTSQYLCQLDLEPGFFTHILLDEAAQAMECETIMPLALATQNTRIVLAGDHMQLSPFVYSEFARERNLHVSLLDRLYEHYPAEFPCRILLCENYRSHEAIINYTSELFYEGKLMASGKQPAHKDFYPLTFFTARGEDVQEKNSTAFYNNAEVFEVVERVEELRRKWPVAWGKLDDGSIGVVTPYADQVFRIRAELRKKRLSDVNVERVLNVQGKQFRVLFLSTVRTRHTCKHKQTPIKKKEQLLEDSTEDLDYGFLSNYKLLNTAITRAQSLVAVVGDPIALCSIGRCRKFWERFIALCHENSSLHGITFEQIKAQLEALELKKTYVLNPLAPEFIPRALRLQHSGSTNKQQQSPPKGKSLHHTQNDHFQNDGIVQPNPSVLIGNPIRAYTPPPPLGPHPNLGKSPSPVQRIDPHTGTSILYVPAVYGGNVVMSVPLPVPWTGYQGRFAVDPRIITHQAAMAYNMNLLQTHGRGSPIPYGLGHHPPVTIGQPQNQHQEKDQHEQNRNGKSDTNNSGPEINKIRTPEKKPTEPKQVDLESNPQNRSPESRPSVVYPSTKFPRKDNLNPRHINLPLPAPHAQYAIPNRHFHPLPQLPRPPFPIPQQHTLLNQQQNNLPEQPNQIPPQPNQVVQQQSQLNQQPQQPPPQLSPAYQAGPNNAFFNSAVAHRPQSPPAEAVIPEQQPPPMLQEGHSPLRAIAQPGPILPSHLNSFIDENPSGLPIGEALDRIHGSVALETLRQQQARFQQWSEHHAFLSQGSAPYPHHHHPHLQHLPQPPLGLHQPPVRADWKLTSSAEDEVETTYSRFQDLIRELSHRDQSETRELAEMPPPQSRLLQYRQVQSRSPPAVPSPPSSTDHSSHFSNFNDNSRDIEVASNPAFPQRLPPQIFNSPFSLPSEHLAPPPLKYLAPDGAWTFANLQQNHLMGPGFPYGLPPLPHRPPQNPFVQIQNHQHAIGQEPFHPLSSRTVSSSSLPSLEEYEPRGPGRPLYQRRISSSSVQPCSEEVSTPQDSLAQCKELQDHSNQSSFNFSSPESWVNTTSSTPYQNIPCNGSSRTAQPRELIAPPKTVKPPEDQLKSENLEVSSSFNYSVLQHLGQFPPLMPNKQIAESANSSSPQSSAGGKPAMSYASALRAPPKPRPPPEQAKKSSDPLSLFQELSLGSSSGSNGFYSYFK

Assays:
Assay in all cases: log2 fold change, soluble protein after heating vs DMSO (PISA); higher = thermal stabilisation; K562 lysate, 10 uM; active = over 0.2 and 3.5 SD of the protein, either way, in both replicates (recomputed)
erlotinib = compound: C#Cc1cccc(Nc2ncnc3cc(OCCOC)c(OCCOC)cc23)c1 [erlotinib]
Method in brief: (§1)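 Thermal stability, expressed as log-two fold change relative to solvent controls, is given from duplicates. Crude K562 extract in PBS pH 7.4 with 1 mM MgCl2, at 1 mg/mL protein, was treated with 10 μM compound for 30 min and heated in aliquots for 3 min across 48°C-58°C. After pooling, adjustment to 0.5% NP-40 at 4°C and centrifugation at 21,000xg for 90 min, supernatant protein was measured by TMTpro 16plex LC-MS/MS with channel sums equalised.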

[1] = compound: C/C(=N\NC(=O)C1=CC(=CC=C1)S(=O)(=O)N2CCOCC2)/C3=C(C=CC(=C3)Cl)O
Method in brief: as §1

[2] = compound: C1=CC(=CC=C1C2=NC3=C(N2)C=C(C=C3)C(=O)N)OC4=CC=C(C=C4)Cl
Method in brief: as §1

[3] = compound: C1=CC2=C(C=CC(=C2)/C=C\3/C(=O)NC(=NCC4=CC=CS4)S3)N=C1
Method in brief: as §1

[4] = compound: C1=CC2=NC=CN=C2C=C1/C=C/3\C(=O)NC(=O)S3
Method in brief: as §1

[5] = compound: C1=CC=C(C=C1)C2=NC(=C(N2)C3=CC=NC=C3)C4=CC(=C(C=C4)Cl)O
Method in brief: as §1

[6] = compound: C1=CC=C2C(=C1)C3=NNC4=CC=CC(=C43)C2=O
Method in brief: as §1

[7] = compound: C1CCN(C1)C(=O)NC2=CC=CC(=C2)NC3=NC=C(C(=N3)NCCC4=CN=CN4)Br
Method in brief: as §1

[8] = compound: C1CN(CCC1(CC2=CC=C(C=C2)Cl)N)C3=NC=NC4=C3C=CN4
Method in brief: as §1

IRAK-1-4 Inhibitor I = compound: C1COCCN1CCN2C3=CC=CC=C3N=C2NC(=O)C4=CC(=CC=C4)[N+](=O)[O-] [IRAK-1-4 Inhibitor I]
Method in brief: as §1

ibrutinib = compound: C=CC(=O)N1CCC[C@@H](n2nc(-c3ccc(Oc4ccccc4)cc3)c3c(N)ncnc32)C1 [ibrutinib]
Method in brief: as §1

[9] = compound: CC(=O)c1cnc2ccc(-c3cc(Cl)c(O)c(Cl)c3)nc2c1N[C@H]1CC[C@H](CN(C)C)CC1
Method in brief: as §1

ralimetinib = compound: CC(C)(C)Cn1c(N)nc2ccc(-c3[nH]c(C(C)(C)C)nc3-c3ccc(F)cc3)nc21 [ralimetinib]
Method in brief: as §1

[10] = compound: CC(C)(O)CC(=O)NCCn1ccc2ncnc(Nc3ccc(Oc4cccc(C(F)(F)F)c4)c(Cl)c3)c21
Method in brief: as §1

[11] = compound: CC(C)C1=C2N=C(C=C(N2N=C1)NCC3=CC=CC=C3)NCCCCCCN
Method in brief: as §1

[12] = compound: CC1=C(C(CC(=O)N1)C2=CC=C(C=C2)C(F)(F)F)C(=O)NC3=C(C=C4C(=C3)C=NN4)F
Method in brief: as §1

[13] = compound: CC1=C(C2=C(C=C1)C(=O)C3=CC=CC=C3N2CCCN)C
Method in brief: as §1

[14] = compound: CC1=C(C=C(C=C1)NC(=O)C2=CC(=CC=C2)C(C)(C)C#N)NC3=CC4=C(C=C3)N=CN(C4=O)C
Method in brief: as §1

[15] = compound: CC1=C(C=C(C=C1)NC(=O)C2=CC(=CC=C2)N(C)C)NC(=O)C3=CC=C(C=C3)O
Method in brief: as §1

[16] = compound: CC1=CC=C(C=C1)SC2=C3C=C(SC3=CN=C2)C(=O)N
Method in brief: as §1

Measured: log2 fold change

HEATR6 (UniProt Q6AI08)
inactive: erlotinib -0.033 | [1] 0.024 | [2] -0.002 | [3] 0.022 | [4] 0.085 | [5] -0.006 | [6] -0.026 | [7] -0.03 | [8] -0.007 | IRAK-1-4 Inhibitor I -0.028 | ibrutinib 0.045 | [9] -0.036 | ralimetinib 0.064 | [10] -0.031 | [11] -0.051 | [12] 0.033 | [13] -0.069 | [14] -0.004 | [15] 0.083 | [16] -0.009

HEXB (UniProt P07686)
inactive: erlotinib -0.017 | [1] 0.032 | [2] 0.004 | [3] 0.012 | [4] 0.004 | [5] -0.028 | [6] 0.008 | [7] 0.003 | [8] -0.013 | IRAK-1-4 Inhibitor I -0.007 | ibrutinib -0.01 | [9] 0.002 | ralimetinib 0.001 | [10] 0.006 | [11] -0.003 | [12] -0.013 | [13] 0 | [14] -0.028 | [15] 0 | [16] -0.005

HNRNPC (UniProt P07910)
inactive: erlotinib -0.007 | [1] 0.031 | [2] -0.016 | [3] -0.003 | [4] -0.021 | [5] 0.015 | [6] -0.017 | [7] 0.023 | [8] 0.002 | IRAK-1-4 Inhibitor I -0.016 | ibrutinib -0.022 | [9] -0.034 | ralimetinib 0.01 | [10] -0.013 | [11] 0.027 | [12] -0.033 | [13] -0.053 | [14] -0.026 | [15] 0.012 | [16] 0.03

HNRNPA1 (UniProt H0YH80)
inactive: erlotinib -0.003 | [1] -0.036 | [2] 0.063 | [3] -0.06 | [4] -0.064 | [5] 0.075 | [6] 0.084 | [7] 0.023 | [8] -0.007 | IRAK-1-4 Inhibitor I -0.016 | ibrutinib 0.214 | [9] -0.056 | ralimetinib -0.068 | [10] 0.028 | [11] 0.074 | [12] 0.038 | [13] 0.087 | [14] 0.055 | [15] -0.017 | [16] 0.017

HNRNPM (UniProt P52272)
inactive: erlotinib -0.015 | [1] -0.046 | [2] 0.004 | [3] -0.022 | [4] 0.051 | [5] -0.036 | [6] -0.039 | [7] -0.022 | [8] -0.003 | IRAK-1-4 Inhibitor I 0.005 | ibrutinib -0.031 | [9] 0.024 | ralimetinib 0.034 | [10] -0.048 | [11] 0.02 | [12] 0.051 | [13] 0.062 | [14] -0.183 | [15] 0.021 | [16] 0.007

HMGB2 (UniProt P26583)
inactive: erlotinib -0.007 | [1] 0.039 | [2] 0.007 | [3] 0.008 | [4] -0.017 | [5] 0.046 | [6] 0.013 | [7] 0.014 | [8] -0.008 | IRAK-1-4 Inhibitor I -0.026 | ibrutinib -0.038 | [9] 0.012 | ralimetinib -0.034 | [10] 0.026 | [11] 0.014 | [12] -0.013 | [13] -0.001 | [14] -0.035 | [15] 0.015 | [16] -0.004

HSD17B11 (UniProt Q8NBQ5)
inactive: erlotinib -0.027 | [1] -0.007 | [2] 0.016 | [3] 0.012 | [4] -0.013 | [5] 0.008 | [6] -0.002 | [7] -0.014 | [8] 0.005 | IRAK-1-4 Inhibitor I 0.099 | ibrutinib -0.047 | [9] 0.027 | ralimetinib 0.033 | [10] -0.034 | [11] 0.008 | [12] -0.024 | [13] 0.029 | [14] -0.012 | [15] -0.042 | [16] -0.011

Copied from the results shown (four entries):
HEXB (UniProt P07686)
inactive: erlotinib -0.017 | [1] 0.032 | [2] 0.004 | [3] 0.012 | [4] 0.004 | [5] -0.028 | [6] 0.008 | [7] 0.003 | [8] -0.013 | IRAK-1-4 Inhibitor I -0.007 | ibrutinib -0.01 | [9] 0.002 | ralimetinib 0.001 | [10] 0.006 | [11] -0.003 | [12] -0.013 | [13] 0 | [14] -0.028 | [15] 0 | [16] -0.005

HNRNPC (UniProt P07910)
inactive: erlotinib -0.007 | [1] 0.031 | [2] -0.016 | [3] -0.003 | [4] -0.021 | [5] 0.015 | [6] -0.017 | [7] 0.023 | [8] 0.002 | IRAK-1-4 Inhibitor I -0.016 | ibrutinib -0.022 | [9] -0.034 | ralimetinib 0.01 | [10] -0.013 | [11] 0.027 | [12] -0.033 | [13] -0.053 | [14] -0.026 | [15] 0.012 | [16] 0.03

HNRNPA1 (UniProt H0YH80)
inactive: erlotinib -0.003 | [1] -0.036 | [2] 0.063 | [3] -0.06 | [4] -0.064 | [5] 0.075 | [6] 0.084 | [7] 0.023 | [8] -0.007 | IRAK-1-4 Inhibitor I -0.016 | ibrutinib 0.214 | [9] -0.056 | ralimetinib -0.068 | [10] 0.028 | [11] 0.074 | [12] 0.038 | [13] 0.087 | [14] 0.055 | [15] -0.017 | [16] 0.017

HNRNPM (UniProt P52272)
inactive: erlotinib -0.015 | [1] -0.046 | [2] 0.004 | [3] -0.022 | [4] 0.051 | [5] -0.036 | [6] -0.039 | [7] -0.022 | [8] -0.003 | IRAK-1-4 Inhibitor I 0.005 | ibrutinib -0.031 | [9] 0.024 | ralimetinib 0.034 | [10] -0.048 | [11] 0.02 | [12] 0.051 | [13] 0.062 | [14] -0.183 | [15] 0.021 | [16] 0.007

Additional records follow.

HLTF (UniProt Q14527)
inactive: erlotinib 0.052 | [1] -0.019 | [2] 0.081 | [3] -0.003 | [4] -0.032 | [5] -0.028 | [6] 0.008 | [7] -0.053 | [8] 0.015 | IRAK-1-4 Inhibitor I -0.019 | ibrutinib 0.016 | [9] 0.054 | ralimetinib 0.024 | [10] -0.017 | [11] -0.023 | [12] 0.046 | [13] 0.048 | [14] -0.022 | [15] 0.003 | [16] -0.018

HNRNPD isoform 2 (UniProt Q14103)
inactive: erlotinib -0.001 | [1] -0.014 | [2] -0.022 | [3] -0.027 | [4] 0.049 | [5] 0.014 | [6] -0.023 | [7] 0.012 | [8] -0.009 | IRAK-1-4 Inhibitor I 0.018 | ibrutinib 0 | [9] -0.142 | ralimetinib -0.039 | [10] -0.01 | [11] 0.016 | [12] -0.046 | [13] 0.001 | [14] 0.034 | [15] -0.014 | [16] -0.011

HMCES (UniProt Q96FZ2)
inactive: erlotinib 0.049 | [1] -0.035 | [2] 0.099 | [3] 0.067 | [4] -0.045 | [5] 0.014 | [6] -0.062 | [7] -0.051 | [8] -0.012 | IRAK-1-4 Inhibitor I 0 | ibrutinib -0.026 | [9] -0.017 | ralimetinib -0.015 | [10] -0.05 | [11] 0.016 | [12] 0.01 | [13] -0.047 | [14] 0.005 | [15] 0.082 | [16] 0.003

HSPA1L (UniProt P34931)
inactive: erlotinib 0.073 | [1] 0.049 | [2] -0.014 | [3] -0.026 | [4] 0.022 | [5] 0.025 | [6] 0.115 | [7] 0.012 | [8] -0.053 | IRAK-1-4 Inhibitor I 0.114 | ibrutinib 0.035 | [9] 0.04 | ralimetinib -0.041 | [10] -0.2 | [11] -0.051 | [12] 0.006 | [13] -0.13 | [14] -0.061 | [15] -0.038 | [16] 0.028

HSPA14 (UniProt Q0VDF9)
inactive: erlotinib 0.014 | [1] 0.025 | [2] -0.009 | [3] 0.009 | [4] 0.012 | [5] 0.049 | [6] -0.035 | [7] 0.018 | [8] 0.014 | IRAK-1-4 Inhibitor I 0.003 | ibrutinib 0.004 | [9] -0.008 | ralimetinib 0.009 | [10] -0.013 | [11] -0.032 | [12] -0.02 | [13] -0.009 | [14] -0.012 | [15] 0.033 | [16] 0.004

HLCS (UniProt P50747)
inactive: erlotinib 0.019 | [1] -0.071 | [2] 0.013 | [3] 0.03 | [4] -0.017 | [5] -0.004 | [6] -0.019 | [7] 0.008 | [8] -0.034 | IRAK-1-4 Inhibitor I -0.008 | ibrutinib 0.012 | [9] 0.023 | ralimetinib -0.005 | [10] -0.019 | [11] -0.025 | [12] 0.018 | [13] -0.015 | [14] 0.029 | [15] 0.057 | [16] -0.032

HIST2H2AA3 (UniProt Q6FI13)
inactive: erlotinib -0.012 | [1] -0.956 | [2] 0.002 | [3] -0.054 | [4] -0.05 | [5] 0.126 | [6] 0.012 | [7] 0.083 | [8] 0.019 | IRAK-1-4 Inhibitor I -0.055 | ibrutinib -0.011 | [9] -0.014 | ralimetinib -0.112 | [10] 0.065 | [11] 0 | [12] -0.012 | [13] 0.028 | [14] -0.046 | [15] 0.032 | [16] 0.045

HERC1 (UniProt Q15751)
inactive: erlotinib 0.027 | [1] 0.018 | [2] 0.013 | [3] 0.006 | [4] 0.001 | [5] 0 | [6] -0.012 | [7] -0.015 | [8] 0.023 | IRAK-1-4 Inhibitor I -0.011 | ibrutinib -0.02 | [9] -0.02 | ralimetinib -0.002 | [10] -0.022 | [11] -0.006 | [12] 0.027 | [13] -0.013 | [14] -0.007 | [15] 0.003 | [16] 0.004

HELZ (UniProt P42694)
inactive: erlotinib 0.044 | [1] 0.012 | [2] 0.026 | [3] -0.006 | [4] 0.014 | [5] -0.057 | [6] -0.064 | [7] -0.007 | [8] 0.056 | IRAK-1-4 Inhibitor I 0.02 | ibrutinib 0.01 | [9] -0.061 | ralimetinib 0.01 | [10] -0.029 | [11] 0.027 | [12] 0.05 | [13] 0.008 | [14] -0.143 | [15] -0.015 | [16] -0.019
